# Data published in the supplement of paper PMC4604168 (melanoma cell lines).
# The list shows a part of the results. Repeats are few or missing, and single values can be far off.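 Cells were imaged in 1,536-well plates, and nuclei stained with an antibody against cleaved PARP were counted against all DNA-stained nuclei to give the apoptosis fraction. Screening doses were chosen to leave most cells alive, and resting and induced cleaved-PARP levels differ strongly between cell lines.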
# System: 501Mel
# Test: cleaved PARP positive nuclei fraction relative to DMSO control; melanoma cells; higher = more apoptosis
# Conditions: library dose: low library concentration; 72 h
row,Compound,cleaved PARP positive nuclei fraction [%]
1,"N.N.[Cl][Pt][Cl] [cisplatin] + Cn1nnc2c(C(N)=O)ncn2c1=O [temozolomide] (first compound 1.6 µM, partner dose 2 µM)",90.9
2,"Cn1cc(C2=C(c3cn(C4CCN(Cc5ccccn5)CC4)c4ccccc34)C(=O)NC2=O)c2ccccc21 [Enzastaurin] + C=CCNC1=C2C[C@@H](C)C[C@H](OC)[C@H](O)[C@@H](C)/C=C(\C)[C@H](OC(N)=O)[C@@H](OC)/C=C\C=C(/C)C(=O)NC(=CC1=O)C2=O [Tanespimycin] (first compound 0.8 µM, partner dose 0.002 µM)",104
3,"CS(=O)(=O)c1ccc(C(=O)Nc2ccc(Cl)c(-c3ccccn3)c2)c(Cl)c1 [vismodegib] + C[As](C)SC[C@H](NC(=O)CC[C@H](N)C(=O)O)C(=O)NCC(=O)O [Darinaparsin] (first compound 1 µM, partner dose 0.4 µM)",154
4,"CS(=O)(=O)c1ccc(C(=O)Nc2ccc(Cl)c(-c3ccccn3)c2)c(Cl)c1 [vismodegib] + N.N.[Cl][Pt][Cl] [cisplatin] (first compound 1 µM, partner dose 1.6 µM)",46.7
5,"CCCS(=O)(=O)Nc1ccc(F)c(C(=O)c2c[nH]c3ncc(Cl)cc23)c1F + C[As](C)SC[C@H](NC(=O)CC[C@H](N)C(=O)O)C(=O)NCC(=O)O [Darinaparsin] (first compound 0.08 µM, partner dose 0.4 µM)",74.4
6,"C[C@]12O[C@H](C[C@]1(O)CO)n1c3ccccc3c3c4c(c5c6ccccc6n2c5c31)CNC4=O [Lestaurtinib] + C=CCNC1=C2C[C@@H](C)C[C@H](OC)[C@H](O)[C@@H](C)/C=C(\C)[C@H](OC(N)=O)[C@@H](OC)/C=C\C=C(/C)C(=O)NC(=CC1=O)C2=O [Tanespimycin] (first compound 0.004 µM, partner dose 0.002 µM)",119
7,"C[C@]12O[C@H](C[C@]1(O)CO)n1c3ccccc3c3c4c(c5c6ccccc6n2c5c31)CNC4=O [Lestaurtinib] + O=C(O)[C@@H]1[O][Sb](=[O])([O][Sb]2(=[O])[O][C@H]([C@H](O)CO)[C@H](O)[C@H](C(=O)O)[O]2)[O][C@H]([C@H](O)CO)[C@@H]1O [stibogluconate] (first compound 0.004 µM, partner dose 2 µM)",81.5
8,"Cn1cc(C2=C(c3cn(C4CCN(Cc5ccccn5)CC4)c4ccccc34)C(=O)NC2=O)c2ccccc21 [Enzastaurin] + C=C(c1ccc(C(=O)O)cc1)c1cc2c(cc1C)C(C)(C)CCC2(C)C [Bexarotene] (first compound 0.8 µM, partner dose 2 µM)",146
